The target in experiment [1] is T1, p120-catenin (p120ctn), endogenous (human) (UniProt O60716).
T1 sequence (looked up): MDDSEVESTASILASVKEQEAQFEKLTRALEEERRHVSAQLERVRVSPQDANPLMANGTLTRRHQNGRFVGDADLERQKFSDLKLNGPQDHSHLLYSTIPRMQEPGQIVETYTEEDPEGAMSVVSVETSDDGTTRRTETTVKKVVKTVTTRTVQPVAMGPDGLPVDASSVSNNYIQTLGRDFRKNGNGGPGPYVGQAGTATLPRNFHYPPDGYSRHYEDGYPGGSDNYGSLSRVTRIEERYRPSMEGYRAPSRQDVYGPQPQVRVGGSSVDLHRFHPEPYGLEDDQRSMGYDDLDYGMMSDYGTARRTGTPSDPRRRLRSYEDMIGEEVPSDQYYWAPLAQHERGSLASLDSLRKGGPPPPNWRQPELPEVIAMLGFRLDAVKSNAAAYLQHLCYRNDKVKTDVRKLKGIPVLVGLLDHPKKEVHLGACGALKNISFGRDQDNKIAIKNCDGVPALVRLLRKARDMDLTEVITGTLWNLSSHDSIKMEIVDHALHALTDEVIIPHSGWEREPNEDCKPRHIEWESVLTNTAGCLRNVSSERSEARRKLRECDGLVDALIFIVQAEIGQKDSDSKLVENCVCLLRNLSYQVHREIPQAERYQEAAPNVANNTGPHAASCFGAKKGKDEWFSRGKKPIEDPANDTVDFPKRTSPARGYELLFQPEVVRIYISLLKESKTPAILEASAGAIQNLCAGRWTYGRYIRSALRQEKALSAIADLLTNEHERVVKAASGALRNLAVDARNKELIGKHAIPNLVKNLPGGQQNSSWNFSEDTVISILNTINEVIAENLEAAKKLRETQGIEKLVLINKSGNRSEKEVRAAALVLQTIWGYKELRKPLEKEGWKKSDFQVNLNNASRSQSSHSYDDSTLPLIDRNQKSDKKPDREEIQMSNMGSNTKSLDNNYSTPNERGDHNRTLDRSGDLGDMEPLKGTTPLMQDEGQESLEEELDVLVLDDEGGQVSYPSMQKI
Kind of experiment: immunoprecipitation and western blot, HEK293 cells stably expressing HA-LPP3. Background: Immunoblotting shows a protein as a band on a membrane.

The chains behind the UniProt entries cited, without tags or fusion partners. Where a name states a change or a piece, a line headed by the entry shows the natural chain unless it says otherwise. A line that says so, or that is headed by a name, gives the form on record, which may keep a tag or linker.
HA-tagged human wild-type LPP3 (pLNCX2-HA-WT-hLPP3) (O14495, form named): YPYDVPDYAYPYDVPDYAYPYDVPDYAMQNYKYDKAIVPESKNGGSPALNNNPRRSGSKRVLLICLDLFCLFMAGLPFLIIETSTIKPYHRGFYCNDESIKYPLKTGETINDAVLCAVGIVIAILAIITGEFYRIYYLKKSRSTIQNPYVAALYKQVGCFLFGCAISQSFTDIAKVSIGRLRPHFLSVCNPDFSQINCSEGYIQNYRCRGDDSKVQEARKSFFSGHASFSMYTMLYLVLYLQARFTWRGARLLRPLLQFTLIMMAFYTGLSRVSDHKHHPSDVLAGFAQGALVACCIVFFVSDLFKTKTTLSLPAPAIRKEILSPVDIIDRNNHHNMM

Experiment [2] concerns the target T1, p120-catenin (p120ctn), endogenous (human). Kind of experiment: cell surface biotinylation and anti-HA co-immunoprecipitation from ECs.

Results are given in words; binding and its absence hold for the method and conditions named. For some assays here: Binding seen in cells or lysates may run through a third protein. Some results given as binding are weak or reduced against the parent protein; the word gives no strength.

As for “HA-tagged human wild-type LPP3 (pLNCX2-HA-WT-hLPP3) (from UniProt O14495 1-311) (enzyme)”, the binding result in experiment [1] and in experiment [2] was “binds” each time.

Source of the values: patent US20100150879A1.
